# According to PMC3784504:
# Chains of the proteins cited; added tags and fusions are not shown.
# UniProt P23696: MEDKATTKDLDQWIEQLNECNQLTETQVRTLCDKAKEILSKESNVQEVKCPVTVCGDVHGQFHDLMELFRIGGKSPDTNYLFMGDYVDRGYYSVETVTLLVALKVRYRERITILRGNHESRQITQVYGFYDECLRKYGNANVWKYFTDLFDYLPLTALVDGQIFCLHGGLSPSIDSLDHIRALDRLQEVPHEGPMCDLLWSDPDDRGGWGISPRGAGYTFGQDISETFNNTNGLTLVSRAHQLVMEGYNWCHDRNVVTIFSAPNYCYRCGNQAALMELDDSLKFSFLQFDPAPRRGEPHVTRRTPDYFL
# UniProt Q9VMJ7: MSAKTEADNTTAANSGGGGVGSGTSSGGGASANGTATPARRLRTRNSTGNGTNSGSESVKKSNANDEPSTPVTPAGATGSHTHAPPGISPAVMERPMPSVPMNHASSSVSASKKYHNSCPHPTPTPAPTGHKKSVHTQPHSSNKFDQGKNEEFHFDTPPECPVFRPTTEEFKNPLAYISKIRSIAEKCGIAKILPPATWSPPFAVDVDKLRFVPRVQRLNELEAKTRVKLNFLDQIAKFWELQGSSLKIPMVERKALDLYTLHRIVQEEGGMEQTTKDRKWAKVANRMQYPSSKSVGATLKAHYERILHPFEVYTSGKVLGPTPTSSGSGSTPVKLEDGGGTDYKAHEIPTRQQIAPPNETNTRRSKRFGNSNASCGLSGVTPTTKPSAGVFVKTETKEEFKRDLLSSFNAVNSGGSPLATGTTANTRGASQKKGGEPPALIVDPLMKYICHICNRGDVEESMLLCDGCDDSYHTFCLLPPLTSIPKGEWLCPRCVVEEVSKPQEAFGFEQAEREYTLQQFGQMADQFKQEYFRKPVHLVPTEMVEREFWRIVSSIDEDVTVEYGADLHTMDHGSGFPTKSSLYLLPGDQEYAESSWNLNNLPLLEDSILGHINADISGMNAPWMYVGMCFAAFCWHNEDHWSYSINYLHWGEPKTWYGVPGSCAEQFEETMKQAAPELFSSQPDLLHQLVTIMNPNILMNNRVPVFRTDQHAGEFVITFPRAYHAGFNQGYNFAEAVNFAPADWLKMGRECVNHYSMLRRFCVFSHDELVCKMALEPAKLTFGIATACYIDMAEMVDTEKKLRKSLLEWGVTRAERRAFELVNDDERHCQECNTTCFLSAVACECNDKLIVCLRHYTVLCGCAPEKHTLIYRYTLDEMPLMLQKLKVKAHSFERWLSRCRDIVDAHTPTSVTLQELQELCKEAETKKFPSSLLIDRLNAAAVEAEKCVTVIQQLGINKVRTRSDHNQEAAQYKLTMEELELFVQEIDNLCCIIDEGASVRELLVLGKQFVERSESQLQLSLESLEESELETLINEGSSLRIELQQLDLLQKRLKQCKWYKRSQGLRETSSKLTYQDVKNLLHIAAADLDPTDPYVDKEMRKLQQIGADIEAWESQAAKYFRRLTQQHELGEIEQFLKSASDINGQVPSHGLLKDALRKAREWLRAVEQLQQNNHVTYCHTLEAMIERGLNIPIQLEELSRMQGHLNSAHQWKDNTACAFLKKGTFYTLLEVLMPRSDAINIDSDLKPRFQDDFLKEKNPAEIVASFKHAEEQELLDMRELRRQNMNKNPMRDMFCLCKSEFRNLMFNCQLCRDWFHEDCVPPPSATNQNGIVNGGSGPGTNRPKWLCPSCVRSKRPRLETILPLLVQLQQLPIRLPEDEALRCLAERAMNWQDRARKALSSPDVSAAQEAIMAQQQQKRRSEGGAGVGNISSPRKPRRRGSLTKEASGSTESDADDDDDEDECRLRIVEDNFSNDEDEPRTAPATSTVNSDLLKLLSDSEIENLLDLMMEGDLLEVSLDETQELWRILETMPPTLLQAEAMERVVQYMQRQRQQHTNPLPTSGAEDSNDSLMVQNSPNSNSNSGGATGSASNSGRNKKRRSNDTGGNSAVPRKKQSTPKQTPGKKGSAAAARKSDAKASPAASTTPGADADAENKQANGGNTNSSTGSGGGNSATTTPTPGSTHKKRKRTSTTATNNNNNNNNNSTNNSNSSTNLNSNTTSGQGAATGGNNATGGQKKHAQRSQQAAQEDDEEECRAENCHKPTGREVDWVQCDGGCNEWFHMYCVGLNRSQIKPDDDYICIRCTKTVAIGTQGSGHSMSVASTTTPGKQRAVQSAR
# UniProt Q94517: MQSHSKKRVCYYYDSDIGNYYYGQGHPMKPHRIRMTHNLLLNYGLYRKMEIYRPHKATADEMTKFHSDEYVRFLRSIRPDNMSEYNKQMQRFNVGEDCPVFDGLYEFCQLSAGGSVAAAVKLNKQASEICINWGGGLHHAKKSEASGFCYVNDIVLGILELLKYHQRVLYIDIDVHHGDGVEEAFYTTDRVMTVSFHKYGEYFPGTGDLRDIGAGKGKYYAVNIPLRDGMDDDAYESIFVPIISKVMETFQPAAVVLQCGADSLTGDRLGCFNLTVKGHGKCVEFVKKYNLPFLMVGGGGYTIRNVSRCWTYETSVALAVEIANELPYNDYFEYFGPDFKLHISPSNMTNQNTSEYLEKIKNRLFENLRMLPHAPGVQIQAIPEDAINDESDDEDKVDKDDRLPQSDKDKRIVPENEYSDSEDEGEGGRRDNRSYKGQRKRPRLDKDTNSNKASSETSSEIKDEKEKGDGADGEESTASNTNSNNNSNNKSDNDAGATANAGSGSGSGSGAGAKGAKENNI
# UniProt Q7PLI2: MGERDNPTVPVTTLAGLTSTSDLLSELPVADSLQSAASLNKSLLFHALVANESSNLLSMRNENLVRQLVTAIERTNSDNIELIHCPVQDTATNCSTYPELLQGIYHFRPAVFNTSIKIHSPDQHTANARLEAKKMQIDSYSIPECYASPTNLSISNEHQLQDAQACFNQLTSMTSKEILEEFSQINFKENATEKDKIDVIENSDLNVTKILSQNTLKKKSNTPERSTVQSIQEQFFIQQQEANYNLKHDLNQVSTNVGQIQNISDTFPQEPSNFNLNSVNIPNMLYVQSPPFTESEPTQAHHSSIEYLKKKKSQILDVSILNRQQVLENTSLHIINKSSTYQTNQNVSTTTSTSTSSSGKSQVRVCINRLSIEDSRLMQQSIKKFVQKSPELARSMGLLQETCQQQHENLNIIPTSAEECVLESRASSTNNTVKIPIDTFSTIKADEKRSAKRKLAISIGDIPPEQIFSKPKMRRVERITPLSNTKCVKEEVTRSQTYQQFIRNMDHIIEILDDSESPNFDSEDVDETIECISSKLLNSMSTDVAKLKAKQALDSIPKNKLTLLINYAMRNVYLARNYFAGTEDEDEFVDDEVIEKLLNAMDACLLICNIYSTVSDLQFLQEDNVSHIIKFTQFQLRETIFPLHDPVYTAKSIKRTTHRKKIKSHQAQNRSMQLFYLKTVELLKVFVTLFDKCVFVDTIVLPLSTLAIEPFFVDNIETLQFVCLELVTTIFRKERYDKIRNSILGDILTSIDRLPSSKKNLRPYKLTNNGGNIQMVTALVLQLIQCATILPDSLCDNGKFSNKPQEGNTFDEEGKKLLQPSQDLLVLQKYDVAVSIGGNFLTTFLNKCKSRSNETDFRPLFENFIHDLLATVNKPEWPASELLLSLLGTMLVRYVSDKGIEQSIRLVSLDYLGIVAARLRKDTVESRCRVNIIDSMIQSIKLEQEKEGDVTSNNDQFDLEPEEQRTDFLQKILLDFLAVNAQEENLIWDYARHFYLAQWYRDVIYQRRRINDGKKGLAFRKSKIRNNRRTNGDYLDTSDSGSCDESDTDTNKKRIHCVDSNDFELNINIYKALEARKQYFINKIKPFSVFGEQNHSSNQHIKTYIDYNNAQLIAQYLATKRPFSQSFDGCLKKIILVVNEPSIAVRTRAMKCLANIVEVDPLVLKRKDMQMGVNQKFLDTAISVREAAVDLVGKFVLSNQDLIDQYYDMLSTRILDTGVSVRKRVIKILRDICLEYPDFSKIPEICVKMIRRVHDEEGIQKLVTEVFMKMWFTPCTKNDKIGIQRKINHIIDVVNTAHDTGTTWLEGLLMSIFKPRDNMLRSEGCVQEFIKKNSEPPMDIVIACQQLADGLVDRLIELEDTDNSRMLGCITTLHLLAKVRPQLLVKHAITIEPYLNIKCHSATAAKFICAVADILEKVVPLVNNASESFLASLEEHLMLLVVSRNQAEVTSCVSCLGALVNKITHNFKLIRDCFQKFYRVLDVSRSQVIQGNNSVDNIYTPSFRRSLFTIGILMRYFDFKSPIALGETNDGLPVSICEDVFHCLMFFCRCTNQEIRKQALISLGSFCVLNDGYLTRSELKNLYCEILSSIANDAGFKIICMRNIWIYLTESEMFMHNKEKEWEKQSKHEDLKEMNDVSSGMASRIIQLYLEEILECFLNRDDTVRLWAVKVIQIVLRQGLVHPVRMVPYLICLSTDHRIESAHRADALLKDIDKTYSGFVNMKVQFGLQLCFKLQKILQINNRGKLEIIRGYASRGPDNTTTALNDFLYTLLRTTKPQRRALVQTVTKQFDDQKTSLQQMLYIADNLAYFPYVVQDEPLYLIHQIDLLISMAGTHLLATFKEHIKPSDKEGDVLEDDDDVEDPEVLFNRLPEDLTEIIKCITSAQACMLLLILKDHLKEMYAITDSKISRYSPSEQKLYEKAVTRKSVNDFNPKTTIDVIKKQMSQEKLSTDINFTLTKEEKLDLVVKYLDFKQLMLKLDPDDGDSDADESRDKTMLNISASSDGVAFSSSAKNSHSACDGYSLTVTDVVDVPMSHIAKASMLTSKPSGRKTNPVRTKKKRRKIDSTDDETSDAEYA
# Columns and labels:
# Assay in all cases: affinity purification with mass spectrometry; NAP1, SA, SMC1 or PP2A (catalytic subunit) immunopurified from 0-12 hour Drosophila embryo nuclear extract (NAP1 and SA also from S2 cells) with antibodies cross-linked to protein A sepharose; washes with HEMG, 600 mM KCl, 0.1% NP-40; SDS-PAGE, mass spectrometry
# [1] = molecular target: T1, histone chaperone NAP1 (Drosophila (endogenous in embryos and S2 cells)) (UniProt Q9W1G7)
# T1 sequence: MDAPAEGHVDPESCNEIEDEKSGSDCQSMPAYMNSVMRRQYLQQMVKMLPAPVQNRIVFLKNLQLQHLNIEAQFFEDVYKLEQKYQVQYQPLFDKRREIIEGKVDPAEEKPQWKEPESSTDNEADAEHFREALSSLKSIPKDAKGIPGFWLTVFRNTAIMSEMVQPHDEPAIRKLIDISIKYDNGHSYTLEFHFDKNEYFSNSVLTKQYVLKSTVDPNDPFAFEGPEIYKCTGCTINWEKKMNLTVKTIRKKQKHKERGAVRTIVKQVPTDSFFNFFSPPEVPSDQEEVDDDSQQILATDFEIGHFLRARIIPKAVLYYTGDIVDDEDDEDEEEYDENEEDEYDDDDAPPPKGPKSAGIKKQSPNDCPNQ
# [2] = molecular target: T2, cohesin subunit SMC1 (Drosophila (endogenous in embryos and S2 cells)) (UniProt Q9VCD8)
# T2 sequence: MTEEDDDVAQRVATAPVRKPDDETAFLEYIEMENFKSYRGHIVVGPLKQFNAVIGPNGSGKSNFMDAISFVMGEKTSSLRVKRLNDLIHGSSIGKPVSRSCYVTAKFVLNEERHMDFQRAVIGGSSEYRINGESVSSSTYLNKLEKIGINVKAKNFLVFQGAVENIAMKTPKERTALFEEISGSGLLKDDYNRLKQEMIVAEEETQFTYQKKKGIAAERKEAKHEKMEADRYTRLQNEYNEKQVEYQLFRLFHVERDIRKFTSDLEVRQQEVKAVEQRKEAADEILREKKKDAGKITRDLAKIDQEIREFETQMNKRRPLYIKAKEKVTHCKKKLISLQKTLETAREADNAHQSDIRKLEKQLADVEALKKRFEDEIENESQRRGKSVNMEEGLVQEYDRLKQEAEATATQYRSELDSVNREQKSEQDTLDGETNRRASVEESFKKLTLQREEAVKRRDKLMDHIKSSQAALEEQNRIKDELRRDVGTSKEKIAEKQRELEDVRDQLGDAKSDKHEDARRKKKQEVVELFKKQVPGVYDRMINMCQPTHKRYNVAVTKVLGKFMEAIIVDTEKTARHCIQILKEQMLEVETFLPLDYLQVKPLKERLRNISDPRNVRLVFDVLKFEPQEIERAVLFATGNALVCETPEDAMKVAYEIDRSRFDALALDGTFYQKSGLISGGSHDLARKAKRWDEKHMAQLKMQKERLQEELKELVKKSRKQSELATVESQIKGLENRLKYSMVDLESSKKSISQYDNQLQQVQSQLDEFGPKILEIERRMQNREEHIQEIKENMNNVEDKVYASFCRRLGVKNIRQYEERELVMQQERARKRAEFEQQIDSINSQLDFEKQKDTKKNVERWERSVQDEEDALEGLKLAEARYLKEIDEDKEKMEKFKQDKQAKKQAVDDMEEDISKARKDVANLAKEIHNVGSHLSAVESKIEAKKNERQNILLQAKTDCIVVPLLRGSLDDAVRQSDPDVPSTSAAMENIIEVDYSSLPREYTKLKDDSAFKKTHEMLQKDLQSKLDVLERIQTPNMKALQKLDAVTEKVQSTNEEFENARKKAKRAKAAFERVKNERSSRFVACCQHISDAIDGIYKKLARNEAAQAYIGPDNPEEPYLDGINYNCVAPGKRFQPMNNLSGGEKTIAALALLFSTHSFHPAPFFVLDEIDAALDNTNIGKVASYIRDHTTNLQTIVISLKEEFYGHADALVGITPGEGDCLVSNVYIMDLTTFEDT
# [3] = molecular target: protein phosphatase 2A (PP2A) catalytic subunit (Drosophila (endogenous in embryos and S2 cells)) (UniProt P23696)
Substance,binding [1],binding [2],binding [3]
EMSY (Drosophila (endogenous in embryos)),binds,no binding,–
LID (from UniProt Q9VMJ7 1-1838),binds,no binding,–
RPD3 (from UniProt Q94517 1-521),binds,no binding,–
SIN3A (Drosophila (endogenous in embryos)),binds,no binding,–
cohesin subunit stromalin (SA),binds,binds,–

# Further lines, results first:
binding [1],binding [2],binding [3],Substance
–,binds,binds,Nipped-B/SCC2 (from UniProt Q7PLI2 1-2077)
binds,no binding,–,PF1 (Drosophila (endogenous in embryos))
binds,–,–,cohesin subunit RAD21 (Drosophila (endogenous in embryos))
–,binds,–,protein phosphatase 2A (PP2A) catalytic subunit (from UniProt P23696 1-309) (enzyme)

# These are yes or no findings as the source states them, for the method shown. Binding seen in cells or lysates may run through a third protein. These calls come from enrichment with a bait or labelling near it, and not all partners need be listed. For some of these results: A no says only that the protein was not detected with the bait. For some of these results: Where a sequence is shown, tags or fusion partners need not be part of it.
